# Inconclusive results, whose numbers are uncertain, are shown with a selection of clear calls. A potency beside an inconclusive call is a rough fit, not a confirmed value. Active and inactive are the calls of the source. Rule for the calls: active = hit-call score of the fitted dose curve at least 0.9, where 1 is the maximum; inconclusive = response in the unintended direction; inactive = score below 0.9.
# The chains behind the UniProt entries cited, without tags or fusion partners.
# UniProt P08684, whole entry, looked up: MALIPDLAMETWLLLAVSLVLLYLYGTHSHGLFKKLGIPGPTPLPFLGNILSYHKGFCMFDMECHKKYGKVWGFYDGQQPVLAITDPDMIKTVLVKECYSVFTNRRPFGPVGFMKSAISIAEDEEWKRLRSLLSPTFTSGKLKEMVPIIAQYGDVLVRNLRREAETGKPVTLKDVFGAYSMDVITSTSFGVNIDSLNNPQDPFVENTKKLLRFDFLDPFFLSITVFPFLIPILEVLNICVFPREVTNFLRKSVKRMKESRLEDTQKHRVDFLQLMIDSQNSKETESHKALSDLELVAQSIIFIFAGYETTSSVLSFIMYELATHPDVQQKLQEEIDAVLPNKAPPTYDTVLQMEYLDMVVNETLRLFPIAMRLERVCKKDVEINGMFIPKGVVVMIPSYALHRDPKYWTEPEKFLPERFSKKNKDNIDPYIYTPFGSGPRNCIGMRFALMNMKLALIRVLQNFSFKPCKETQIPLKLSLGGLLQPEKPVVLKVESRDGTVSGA
# Read-out: Cytochrome P450 3A4 (Homo sapiens) (UniProt P08684)
# Test: CLD_CYP3A4_6hr: CellzDirect (CLD) Gene Expression Assay for xenobiotic metabolism (CYP3A4) at 6 hours (AID 2283680)
# Procedure: CLD_6hr is a cell-based, multiplexed-readout assay that uses hepatocyte, a human liver primary cell, with measurements taken at 6 hours after chemical dosing in a 96-well plate.CLD_CYP3A4_6hr is one of 16 assay component(s) measured or calculated from the CLD_6hr assay. It is designed to make measurements of mRNA induction, a form of inducible reporter, as detected with chemiluminescence signals by Quantitative Nuclease Protection Assay (qNPA) technology.Data from the assay component CLD_CYP3A4_6hr was analyzed at the endpoint, CLD_CYP3A4_6hr, in the positive analysis fitting direction relative to DMSO as the negative control and baseline of activity. Using a type of inducible reporter, gain-of-signal activity can be used to understand changes in the reporter gene as they relate to the gene CYP3A4. Furthermore, this assay endpoint can be referred to as a primary readout. To generalize the intended target to other relatable targets, this assay endpoint is annotated to the cyp intended target family, where subfamily is xenobiotic metabolism.
# Human hepatocyte cultures were treated daily for two consecutive days with fresh dosing solutions containing appropriate concentrations of the 320 ToxCast chemicals (chemical identities were blinded to CellzDirect and other ToxCast collaborators), vehicle control (0.2% DMSO), and positive control inducers as summarized in Table 1. Due to the large number of treatment groups and chemicals examined, the ToxCast chemicals were divided into two groups (spanning two independent cultures of hepatocytes from separate donor preparations (Hu778: ToxCast plates 1 and 2; Hu776: ToxCast plates 3 and 4). Each preparation of human hepatocyte cultures was treated with respective vehicle control, medium only control, set of six positive controls/reference chemicals for the five hepatic receptor pathways, and a subset of eight of the ToxCast chemicals (indoxacarb, pyrithiobac-sodium, norflurazon, cyhalofop-butyl, methomyl, thiram, acetochlor, and propiconazole). These replicate data, coupled with internal replicates designed within the blinded ToxCast chemical library, provided additional data to evaluate interindividual differences between hepatocyte preparations and their potential impact on chemical profiles.Cell morphology and integrity were evaluated using phase-contrast microscopy as an indicator of hepatocyte cell health (Tyson & Green, 1987). Cultures for each treatment group (i.e., media, vehicle [0.2% DMSO], positive control inducers [multiple concentrations], and the ToxCast chemicals [multiple concentrations]) were observed and cell morphology was assessed relative to vehicle control cultures at each harvest time point (0, 6, 24, or 48 h). […] Images were evaluated at the conclusion of the study to assess changes in cell integrity and account for the effects of chemical exposure on uncharacteristic changes in concentration-dependent gene expression profiles. The results from these determinations of apparent cytotoxicity were annotated (yes/no) alongside the corresponding qNPA data for reference.At the conclusion of each treatment period, hepatocyte cultures (96-well) were washed with 1 volume of HBSS, lysed by addition of 25 ul ArrayPlate lysis buffer (HTG, Tucson, AZ), and 70 ul/well of Denaturation Oil, denatured by incubation at 95C for 10 min, and frozen at approximately -70C until analysis by nuclease protection assay (qNPA) (Roberts et al., 2007). For qNPA analysis, cell lysates were thawed at 50C for approximately 30 min, qNPA probes were added, and samples were incubated at 95C for 10 min to begin the detection process by denaturing the target RNA, dissociating the duplexes and secondary structure hybridization. At the conclusion of the hybridization period, S1 nuclease reagent was added to each sample to digest all nonprotected nucleotides at 50C for 60-90 min. […]
SMILES,outcome,AC50
CON(C)C(=O)Nc1ccc(Cl)c(Cl)c1,inactive,
OC(c1ccc(Cl)cc1)(c1ccc(Cl)cc1)C(Cl)(Cl)Cl,,active: 3680 nM
CCOC(=O)COc1cc(-c2nn(C)c(OC(F)F)c2Cl)c(F)cc1Cl,,active: 3970 nM
COP(=O)(OC)SCn1c(=O)oc2cc(Cl)cnc21,,inconclusive: 20000 nM
CC(C)OC(=O)Nc1cccc(Cl)c1,,active: 12200 nM
CSc1nnc(C(C)(C)C)c(=O)n1N,inactive,
N#Cc1c(Cl)c(Cl)c(Cl)c(C#N)c1Cl,,inconclusive: 2000 nM
CCC(CC)Nc1c([N+](=O)[O-])cc(C)c(C)c1[N+](=O)[O-],,inconclusive: 0.4 nM
N#Cc1cc(Br)c(O)c(Br)c1,,inconclusive: 20000 nM
CC(C)(C)C(O)/C(=C\c1ccc(Cl)cc1Cl)n1cncn1 (stereo not given),,active: 1890 nM
[2H]C1([2H])[n+]2ccccc2-c2cccc[n+]2C1([2H])[2H],,inconclusive: 20000 nM
CCN(CC)C(=O)C(C)Oc1cccc2ccccc12 (stereo not given),,inconclusive: 20000 nM
COC(=O)c1ccccc1CS(=O)(=O)NC(=O)Nc1nc(OC)cc(OC)n1,,inconclusive: 20000 nM
C#CCN1C(=O)COc2cc(F)c(N3C(=O)C4=C(CCCC4)C3=O)cc21,inactive,
CCSC(=O)N1CCCCCC1,inactive,
COc1cnc(OC)n2nc(NS(=O)(=O)c3c(OCC(F)F)cccc3C(F)(F)F)nc12,,active: 8340 nM
CSc1nc(NC(C)C)nc(NC(C)C)n1,inactive,
CCC(=NOC/C=C/Cl)C1=C(O)CC(C2CCOCC2)CC1=O (stereo not given),,inconclusive: 14.1 nM
COP(=O)(OC)OC(Br)C(Cl)(Cl)Br (stereo not given),,inconclusive: 20000 nM
CN=C=S,,inconclusive: 57.3 nM

# In another format: results already given
SMILES	outcome	AC50
CON(C)C(=O)Nc1ccc(Cl)c(Cl)c1	inactive	
OC(c1ccc(Cl)cc1)(c1ccc(Cl)cc1)C(Cl)(Cl)Cl		active: 3680 nM
COP(=O)(OC)SCn1c(=O)oc2cc(Cl)cnc21		inconclusive: 20000 nM
CSc1nnc(C(C)(C)C)c(=O)n1N	inactive	
N#Cc1c(Cl)c(Cl)c(Cl)c(C#N)c1Cl		inconclusive: 2000 nM
CC(C)(C)C(O)/C(=C\c1ccc(Cl)cc1Cl)n1cncn1 (stereo not given)		active: 1890 nM
C#CCN1C(=O)COc2cc(F)c(N3C(=O)C4=C(CCCC4)C3=O)cc21	inactive	
CCSC(=O)N1CCCCCC1	inactive	

# Following part.

SMILES,outcome,AC50
CNC(=O)Oc1cccc2ccccc12,,inconclusive: 20000 nM
CC(C)(C)c1ccc(CSc2cnn(C(C)(C)C)c(=O)c2Cl)cc1,,inconclusive: 359 nM
COc1cc(OC)nc(NC(=O)NS(=O)(=O)c2ncccc2OCC(F)(F)F)n1,,inconclusive: 0.397 nM
COC(=O)C(C)Oc1ccc(Oc2ccc(Cl)cc2Cl)cc1 (stereo not given),inactive,
COP(=S)(OC)SCn1nnc2ccccc2c1=O,,active: 975 nM
CC(C)Oc1cc(-n2nc(C(C)(C)C)oc2=O)c(Cl)cc1Cl,,active: 1890 nM
C=C(C)CN(CC)c1c([N+](=O)[O-])cc(C(F)(F)F)cc1[N+](=O)[O-],,inconclusive: 20000 nM
CN(C)c1nc(=O)n(C2CCCCC2)c(=O)n1C,inactive,
Nc1c(Cl)c(Cl)nc(C(=O)O)c1Cl,,inconclusive: 20000 nM
COc1nc(C)nc(NC(=O)NS(=O)(=O)c2ccccc2Cl)n1,inactive,
CC(Oc1ccc(Cl)cc1Cl)C(=O)O (stereo not given),,inconclusive: 1880 nM
CC(C)N1C(=O)c2ccccc2NS1(=O)=O,,inconclusive: 3.25 nM
COc1ccc(-c2ccccc2)cc1NNC(=O)OC(C)C,inactive,
CCOP(=S)(Oc1cnc(C(C)(C)C)nc1)OC(C)C (stereo not given),,active: 1890 nM
CN(C)C(=S)SSC(=S)N(C)C,,inconclusive: 181 nM
CC1(C)C(C=C(Cl)Cl)C1C(=O)OC(C#N)c1ccc(F)c(Oc2ccccc2)c1 (stereo not given),inactive,
CCNP(=S)(OC)O/C(C)=C/C(=O)OC(C)C (stereo not given),,active: 1900 nM
COc1nc(C)nc(NC(=O)NS(=O)(=O)c2ccccc2CCC(F)(F)F)n1,inactive,
Cn1c(-c2ccccc2)cc(-c2ccccc2)[n+]1C,,inconclusive: 214 nM
CCc1ccc(C(=O)NN(C(=O)c2cc(C)cc(C)c2)C(C)(C)C)cc1,,active: 708 nM
